This experiment deals with FLAG-epitope-tagged full-length CUB domain-containing protein 1 (CDCP1) (UniProt Q9H5V8). Put plainly: affinity purification with mass spectrometry; anti-FLAG affinity purification from MDA-MB-231 cells transduced with FLAG-tagged ΔCDCP1 or CDCP1, with or without 100 μM sodium pervanadate for 15 minutes; stained SDS-PAGE bands excised and identified by LC-MS/MS.

Protein sequences, listed by entry. Tags and fused reporters are not part of them. Residues count along the entry.
UniProt Q9H5V8, residues 30-836: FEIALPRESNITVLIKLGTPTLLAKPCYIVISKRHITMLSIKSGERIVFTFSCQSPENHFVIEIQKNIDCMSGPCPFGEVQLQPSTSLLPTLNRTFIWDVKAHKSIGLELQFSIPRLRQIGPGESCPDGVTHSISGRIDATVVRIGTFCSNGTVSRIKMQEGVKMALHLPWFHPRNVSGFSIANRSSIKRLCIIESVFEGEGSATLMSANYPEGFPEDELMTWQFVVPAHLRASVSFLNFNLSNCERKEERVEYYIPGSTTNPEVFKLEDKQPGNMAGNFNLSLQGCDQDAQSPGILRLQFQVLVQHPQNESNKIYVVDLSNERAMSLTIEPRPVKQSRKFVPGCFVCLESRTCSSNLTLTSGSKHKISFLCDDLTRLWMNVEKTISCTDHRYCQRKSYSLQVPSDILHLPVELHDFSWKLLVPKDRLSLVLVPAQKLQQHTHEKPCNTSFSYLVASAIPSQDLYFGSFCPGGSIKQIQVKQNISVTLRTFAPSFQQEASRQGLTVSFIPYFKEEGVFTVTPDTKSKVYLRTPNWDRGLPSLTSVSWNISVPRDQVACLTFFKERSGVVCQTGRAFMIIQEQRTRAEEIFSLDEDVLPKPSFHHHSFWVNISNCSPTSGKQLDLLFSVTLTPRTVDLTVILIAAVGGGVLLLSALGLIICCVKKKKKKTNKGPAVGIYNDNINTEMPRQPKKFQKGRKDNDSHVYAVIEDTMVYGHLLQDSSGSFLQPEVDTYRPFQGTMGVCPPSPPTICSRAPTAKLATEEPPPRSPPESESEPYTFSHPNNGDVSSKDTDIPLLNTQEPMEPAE
UniProt Q9NR12: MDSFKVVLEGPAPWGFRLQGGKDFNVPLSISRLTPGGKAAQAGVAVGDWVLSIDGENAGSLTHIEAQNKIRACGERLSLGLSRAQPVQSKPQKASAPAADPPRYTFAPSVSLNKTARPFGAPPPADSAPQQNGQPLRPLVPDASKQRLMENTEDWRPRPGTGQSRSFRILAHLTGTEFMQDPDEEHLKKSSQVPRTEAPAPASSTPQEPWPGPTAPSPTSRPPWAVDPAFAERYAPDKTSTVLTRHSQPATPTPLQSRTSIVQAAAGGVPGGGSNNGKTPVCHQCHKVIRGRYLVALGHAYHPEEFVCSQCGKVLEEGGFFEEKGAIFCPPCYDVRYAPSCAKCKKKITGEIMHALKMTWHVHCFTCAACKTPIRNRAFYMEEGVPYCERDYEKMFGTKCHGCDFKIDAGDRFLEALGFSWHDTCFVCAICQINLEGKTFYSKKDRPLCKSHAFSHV
UniProt P08670: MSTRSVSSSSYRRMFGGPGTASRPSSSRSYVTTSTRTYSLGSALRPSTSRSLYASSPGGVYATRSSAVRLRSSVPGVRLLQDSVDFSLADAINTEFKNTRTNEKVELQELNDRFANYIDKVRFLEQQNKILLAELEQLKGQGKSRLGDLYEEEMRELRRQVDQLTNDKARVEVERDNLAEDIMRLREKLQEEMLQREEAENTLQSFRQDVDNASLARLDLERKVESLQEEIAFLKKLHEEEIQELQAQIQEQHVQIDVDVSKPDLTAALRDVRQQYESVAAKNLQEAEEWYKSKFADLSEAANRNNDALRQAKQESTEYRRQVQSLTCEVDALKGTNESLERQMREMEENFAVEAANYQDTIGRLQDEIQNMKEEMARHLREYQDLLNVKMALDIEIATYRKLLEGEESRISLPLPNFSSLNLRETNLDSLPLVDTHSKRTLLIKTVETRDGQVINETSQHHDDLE

Results are given in words; binding and its absence hold for the method and conditions named. In cells and extracts the contact can be indirect. A yes stands for co-enrichment or nearness to the bait. Other partners may have been found.

On to “Enigma/PDLIM7 in MDA-MB-231 cells (from UniProt Q9NR12 1-457)”, for which the binding entry is “binds”.
In the case of vimentin (from UniProt P08670 1-466) it was “binds”.

These data come from publication PMC4974783.
